Source: article PMC12675009
No constants are given. Whether binding was seen depends on the method and setting. In cells and extracts the contact can be indirect. Some results given as binding are weak or reduced against the parent protein; the word gives no strength. Sequences can lack the tags named with a protein.

Sequences of proteins named here, by UniProt entry; tags and fusion partners are left off. Residues count along the entry.
UniProt Q9NZQ7, residues 19-290: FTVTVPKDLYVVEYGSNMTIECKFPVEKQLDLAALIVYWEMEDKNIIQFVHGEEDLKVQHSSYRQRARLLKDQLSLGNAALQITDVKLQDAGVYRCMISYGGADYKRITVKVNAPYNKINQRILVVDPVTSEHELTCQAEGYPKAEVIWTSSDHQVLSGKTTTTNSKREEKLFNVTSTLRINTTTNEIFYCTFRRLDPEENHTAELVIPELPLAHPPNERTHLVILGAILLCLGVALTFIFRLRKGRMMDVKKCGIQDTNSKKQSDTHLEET

Target: GFP-PD-L1 (full length PD-L1, pEGFP-N1/PD-L1) (UniProt Q9NZQ7)
Assay: co-IP; truncation mapping in transfected cells (cell line not stated): USP32 truncations with full length PD-L1; PD-L1 truncation with full length USP32

binding: binds
B1: USP32 truncation U2 (367-585), HA-tagged (domain or fragment, UniProt Q8NFA0 367-585)
chain: RPATPEEEGQIIRGWLERESRYGLQAGHNWFIISMQWWQQWKEYVKYDANPVVIEPSSVLNGGKYSFGTAAHPMEQVEDRIGSSLSYVNTTEEKFSDNISTASEASETAGSGFLYSATPGADVCFARQHNTSDNNNQCLLGANGNILLHLNPQKPGAIDNQPLVTQEPVKATSLTLEGGRLKRTPQLIHGRDYEMVPEPVWRALYHWYGANLALPRPVI
